# Measured values: PubChem BioAssay AID540276 (National Center for Advancing Translational Sciences (NCATS), 2011)
# Screen size: about 300,000 compounds; about 5,400 (1.8%) were called active. The inconclusive results got no clear call from the source; some entries with a clear call stand among them for comparison. Calls follow the shape of the full dose curve; tested in HEK293 cells. Potencies of inconclusive entries are doubtful fits and often do not repeat.
# Assay: qHTS for inhibitors of binding or entry into cells for Marburg Virus
# Details: Marburg virus pseudotyped entry inhibition, cell reporter; series mostly up to 37.8 µM
# Potency is read from the fitted curve at half-maximal effect.
row,SMILES,Potency
1,CCOC(=O)C1CCCN(C(=S)Nc2ccc(S(=O)(=O)N3CCOCC3)cc2)C1 (centres undefined),inactive
2,Cc1ccc(Cl)cc1NC(=O)CON=C(N)c1ccccc1,"inconclusive: 15.8 µM [inhibitor, single point]"
3,O=C(NCc1cccnc1)c1cc(-c2ccccc2)on1,inactive
4,CC(C)c1nc2oc3c(=O)[nH]cnc3c2c2c1CCC2,"inconclusive: 0.398 µM [inhibitor, partial curve, poor fit]"
5,CSc1nc2ccsc2c(=O)n1-c1ccccc1,inactive
6,Cc1ccc(C)c(CSc2cn(CCNC(=O)c3cccs3)c3ccccc23)c1,"inconclusive: 35.5 µM [inhibitor, single point]"
7,Cc1ccccc1NC(=O)Cn1nnc(C(=O)NCc2cccs2)c1N,"inconclusive: 15.8 µM [inhibitor, single point]"
8,CCCCC(=O)NCCNc1nc2c(c(=O)n(C)c(=O)n2C)n1Cc1ccc(F)cc1,"inconclusive: 4.47 µM [inhibitor, single point]"
9,COc1ccc(-c2nc(-c3ccc(NC(=O)c4ccncc4)cc3)no2)cc1OC,"inconclusive: 5.8 µM [activator, single point]"
10,O=C(c1cnn2c(C(F)(F)F)cc(-c3ccccc3)nc12)N1CCCCC1c1cccnc1 (centres undefined),"inconclusive: 3.55 µM [inhibitor, partial curve, poor fit]"
11,Cc1ccc(NC(=O)CCc2c(C)nc3ncnn3c2C)cc1Cl,inactive
12,COCCn1c(=S)[nH]c2cc(C(=O)NCCCN3CCOCC3)ccc2c1=O,"inconclusive: 14.6 µM [activator, single point]"
13,Cn1nc(C(=O)NCCc2ccc3c(c2)OCCO3)c2ccccc2c1=O,inactive
14,Cc1csc(NC(=O)c2ccc(Cn3nc(C)c(Br)c3C)o2)n1,"inconclusive: 14.1 µM [inhibitor, partial curve, poor fit]"
15,O=C(CN1CCN(S(=O)(=O)c2ccc(Br)cc2)CC1)N/N=C/c1ccc(Br)s1,"inconclusive: 12.6 µM [inhibitor, single point]"
16,COC(=O)CCSc1cc([N+](=O)[O-])cc2c1c(C1OCCO1)nn2-c1ccccc1,"inconclusive: 14.1 µM [activator, single point]"
17,Cc1ccc(N=C(NO)c2nonc2N)cc1,inactive
18,CCCCC(O)(CCCC)C(=O)NN(C(=O)OC)c1ccc(C)cc1,"inconclusive: 35.5 µM [inhibitor, single point]"
19,O=C(Nc1ccc(Cl)c(Cl)c1)c1cccc(S(=O)(=O)NCc2cccnc2)c1,"inconclusive: 15.8 µM [inhibitor, partial curve, poor fit]"

# At a glance, part of the list above:
row,SMILES,Potency
9,COc1ccc(-c2nc(-c3ccc(NC(=O)c4ccncc4)cc3)no2)cc1OC,"inconclusive: 5.8 µM [activator, single point]"
10,O=C(c1cnn2c(C(F)(F)F)cc(-c3ccccc3)nc12)N1CCCCC1c1cccnc1 (centres undefined),"inconclusive: 3.55 µM [inhibitor, partial curve, poor fit]"
